Assay: general procedure: solution-phase peptide synthesis; DIC/HOBt; EDC.HCl/HOBt; TBTU/HOBt; DIC/Oxyma; ClCO2iBu/NMM; optionally with CuCl
Settings: coupling step

Substance Morph-Gly-Homophe-Leu-Phe-OBn has a step yield of 99%.

— patent publication US20160215016 (published 2016)
